Test results: PMC11758220, “Identification of a Privileged Scaffold for Inhibition of Sterol Transport Proteins through the Synthesis and Ring Distortion of Diverse, Pseudo-Natural Products” (ACS Central Science, 2025)

These compounds were tested on panel of STPs (assay: Screen against a broad panel of the STPs using FP and DSF assays). Settings: single dose data sheet.
Assay type: binding, human

| Structure (SMILES) | Note: interference with FP assays |
| --- | --- |
| C[C@]12CC[C@@H]3C[C@H]1CC[C@@]21C(=Nc2ccc(-c4ccccc4)cc21)O3 [Compound 21a] | Interfered with ORP1, ORP2, and STARD1 FP assays |
| Cc1ccc2c(c1)C(=O)[C@]1(CC[C@@H]3C[C@H](O)CC[C@@]31C)N2 [Compound 13] | Interfered with all FP assays |
| COc1ccc2c(c1)[C@@]13CC[C@@H]4C[C@@H](CC[C@@]41C)OC3=N2 [Compound 15f] | Interfered with ORP2 FP assay |
